Measurements: publication PMC8897425
These are yes or no findings as the source states them, for the method shown. In cells and extracts the contact can be indirect. Some results given as binding are weak or reduced against the parent protein; the word gives no strength. For some assays here: Where a sequence is shown, tags or fusion partners need not be part of it.

The chains behind the UniProt entries cited, without tags or fusion partners.
UniProt Q8N6T7: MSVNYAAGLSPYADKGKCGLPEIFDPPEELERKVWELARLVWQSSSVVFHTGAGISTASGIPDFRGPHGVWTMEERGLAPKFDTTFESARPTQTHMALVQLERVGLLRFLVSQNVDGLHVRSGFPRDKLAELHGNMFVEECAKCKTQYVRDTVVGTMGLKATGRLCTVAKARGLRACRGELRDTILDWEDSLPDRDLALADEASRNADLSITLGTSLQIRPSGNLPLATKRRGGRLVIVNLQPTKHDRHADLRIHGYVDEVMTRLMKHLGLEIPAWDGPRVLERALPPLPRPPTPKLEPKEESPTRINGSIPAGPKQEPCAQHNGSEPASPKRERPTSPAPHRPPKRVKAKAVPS

Tests used:
[1] = target: T1, endogenous MRTF-A (human (endogenous in EAhy926 and HAEC)) (UniProt Q969V6); experiment: co-IP; endogenous proteins in EAhy926 and HAEC cell lysates; lysates incubated with specific antibodies at 4 °C overnight, Protein A/G-plus agarose beads, Western blot
T1 sequence: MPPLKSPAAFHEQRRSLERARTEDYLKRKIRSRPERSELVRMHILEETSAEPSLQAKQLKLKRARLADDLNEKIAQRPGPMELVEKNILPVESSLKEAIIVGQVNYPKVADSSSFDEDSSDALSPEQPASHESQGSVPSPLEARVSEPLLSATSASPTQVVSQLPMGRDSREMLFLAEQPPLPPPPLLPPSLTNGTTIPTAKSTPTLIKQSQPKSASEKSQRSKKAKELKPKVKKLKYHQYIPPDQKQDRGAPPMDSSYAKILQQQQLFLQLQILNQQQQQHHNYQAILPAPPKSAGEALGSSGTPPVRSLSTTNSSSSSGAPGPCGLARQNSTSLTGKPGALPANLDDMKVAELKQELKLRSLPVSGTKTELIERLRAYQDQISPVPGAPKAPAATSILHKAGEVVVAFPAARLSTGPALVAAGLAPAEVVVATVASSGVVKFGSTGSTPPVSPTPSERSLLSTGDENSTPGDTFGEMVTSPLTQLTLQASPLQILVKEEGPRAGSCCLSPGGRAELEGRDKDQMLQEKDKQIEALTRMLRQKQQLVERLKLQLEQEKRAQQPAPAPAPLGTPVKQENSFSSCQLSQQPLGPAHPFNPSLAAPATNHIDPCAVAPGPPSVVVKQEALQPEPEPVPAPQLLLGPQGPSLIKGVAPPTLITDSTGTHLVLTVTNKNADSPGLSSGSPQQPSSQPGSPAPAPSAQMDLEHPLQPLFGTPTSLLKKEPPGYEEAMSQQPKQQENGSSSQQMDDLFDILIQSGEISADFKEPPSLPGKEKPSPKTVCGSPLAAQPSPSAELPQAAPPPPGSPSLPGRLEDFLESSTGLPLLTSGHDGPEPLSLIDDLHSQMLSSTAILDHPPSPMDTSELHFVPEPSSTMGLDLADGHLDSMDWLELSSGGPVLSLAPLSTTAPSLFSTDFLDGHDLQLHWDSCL

[2] = target: T2, FLAG-tagged myocardin-related transcription factor A (MRTF-A) (UniProt Q969V6); experiment: co-IP; HEK293 cells transfected with FLAG-MRTF-A and Myc-SIRT6; whole-cell lysates (50 mM Tris pH 7.4, 150 mM NaCl, 1% Triton X-100); immunoprecipitation with anti-FLAG (M2) beads overnight, elution with 3X FLAG peptide, Western blot
T2 sequence: T1 sequence

Row | binding [1] | binding [2] | Substance
1 | binds | – | endogenous SIRT6 (from UniProt Q8N6T7 1-355) (enzyme)
2 | – | binds | Myc-tagged SIRT6 (from UniProt Q8N6T7 1-355) (enzyme)
